Reference: PMC9484707

Protein sequences, listed by entry. Tags and fused reporters are not part of them. Residues count along the entry.
UniProt A6QG59, residues 30-165: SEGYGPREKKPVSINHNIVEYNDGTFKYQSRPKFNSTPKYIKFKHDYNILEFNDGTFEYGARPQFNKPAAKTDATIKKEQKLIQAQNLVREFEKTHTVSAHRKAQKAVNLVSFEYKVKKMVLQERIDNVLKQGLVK
UniProt Q9Y508: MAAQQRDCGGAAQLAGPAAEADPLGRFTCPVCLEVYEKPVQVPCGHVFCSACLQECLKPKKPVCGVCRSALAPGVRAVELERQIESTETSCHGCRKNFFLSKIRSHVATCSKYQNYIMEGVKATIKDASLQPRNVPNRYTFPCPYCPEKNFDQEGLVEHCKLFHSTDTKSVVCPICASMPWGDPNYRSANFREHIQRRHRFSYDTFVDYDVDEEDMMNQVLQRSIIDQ

Target: extracellular fibrinogen-binding protein (Efb), overexpressed in HEK293T cells (Staphylococcus aureus) (UniProt A6QG59)
Experiment: affinity purification with mass spectrometry; immunoprecipitated overexpressed Efb from HEK293T cells; MS/MS on Q Exactive Plus coupled to UPLC

RNF114, endogenous in HEK293T cells (from UniProt Q9Y508 1-228) (enzyme)
binding: binds

Results are given in words; binding and its absence hold for the method and conditions named. In cells and extracts the contact can be indirect. These calls come from enrichment with a bait or labelling near it, and not all partners need be listed.
